Measurements reported in the supplement of paper PMC7580552.
Counter-ions that a name gives are not always drawn. Some of the results follow. Part of the spread comes from offsets between plates or batches.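 Biofilm, quantified by the absorbance of well-retained crystal violet, is assayed using the K-12 laboratory model grown unshaken in 96-well plates. Candidate specific biofilm inhibitors were drugs that sharply lowered staining yet reduced free-floating growth by less than 70%.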

test system: Escherichia coli W3110; assay: biofilm formation (crystal violet staining) relative to untreated control; higher = more biofilm; conditions: 10 µM; 20-24 h; 30 °C; TB

SMILES | biofilm formation [%]
CO[C@@]1(NC(=O)CSCC#N)C(=O)N2C(C(=O)O)=C(CSc3nnnn3C)CS[C@@H]21 [Cefmetazole sodium salt] | 11
C[C@@H]1[C@H](O)[C@@H](C)/C=C/C=C/C=C/C=C/C=C/C=C/C=C/[C@H](O[C@@H]2O[C@H](C)[C@@H](O)[C@H](N)[C@@H]2O)C[C@@H]2O[C@](O)(C[C@@H](O)C[C@@H](O)[C@H](O)CC[C@@H](O)C[C@@H](O)CC(=O)O[C@H]1C)C[C@H](O)[C@H]2C(=O)O [Amphotericin B] | 75
CCOC(=O)C(C)(C)Oc1ccc(Cl)cc1 [Clofibrate] | 107
CC(C)NC[C@H](O)COc1ccc(CC(N)=O)cc1 [(S)-(-)-Atenolol] | 58
CC(C)(S)C(N)C(=O)O (racemic) [D,L-Penicillamine] | 68
CC(=O)N(O)CCCCCNC(=O)CCC(=O)N(O)CCCCCNC(=O)CCC(=O)N(O)CCCCCN [Deferoxamine mesylate] | 103
CC(C)/N=c1\cc2n(-c3ccc(Cl)cc3)c3ccccc3nc-2cc1Nc1ccc(Cl)cc1 [Clofazimine] | 49
O=C1Cc2cc(CCN3CCN(c4nsc5ccccc45)CC3)c(Cl)cc2N1 [Ziprasidone Hydrochloride] | 108
CCN[C@H]1C[C@H](C)S(=O)(=O)c2sc(S(N)(=O)=O)cc21 [Dorzolamide hydrochloride] | 93
O=c1cc(-c2ccc(O)c(O)c2)oc2cc(O)cc(O)c12 [Luteolin] | 75
CC(C)(C(=O)c1cccnc1)c1cccnc1 [Metyrapone] | 54
Cc1cc(=O)n(-c2ccccc2)n1C [Antipyrine] | 70
Clc1ccc(COC(Cn2ccnc2)c2ccc(Cl)cc2Cl)c(Cl)c1 (stereo not drawn) [Miconazole] | 46
NC12CC3CC(CC(C3)C1)C2 [Adamantamine fumarate] | 86
Cc1ccc(-c2ncc(Cl)cc2-c2ccc(S(C)(=O)=O)cc2)cn1 [Etoricoxib] | 100
CC1CCc2c(N3CCC(O)CC3)c(F)cc3c(=O)c(C(=O)O)cn1c23 (stereo not drawn) [Nadifloxacin] | 26
C[C@@H]1NC(=O)NC1=O [Methylhydantoin-5-(L)] | 72
CN1CCN(C2=Nc3cc(Cl)ccc3Nc3ccccc32)CC1 [Clozapine] | 83
CC(Oc1ccccc1)C(=O)N[C@@H]1C(=O)N2[C@@H]1SC(C)(C)[C@@H]2C(=O)O (stereo partly drawn) [Phenethicillin potassium salt] | 91
COc1ccc(C(=O)NCc2ccc(OCCN(C)C)cc2)cc1OC [Itopride] | 97
N[C@@H](C(=O)N[C@@H]1C(=O)N2C(C(=O)O)=C(Cl)CS[C@H]12)c1ccccc1 [Cefaclor hydrate] | 59
O=C1c2ccccc2S(=O)(=O)N1CCCCN1CCN(c2ncccn2)CC1 [Ipsapirone] | 74
Cn1c([N+](=O)[O-])cnc1COC(N)=O [Ronidazole] | 100
CN(C)[C@@H]1C(O)=C(C(N)=O)C(=O)[C@@]2(O)C(O)=C3C(=O)c4c(O)ccc(Cl)c4[C@@H](O)[C@H]3C[C@@H]12 [Demeclocycline hydrochloride] | 15
COc1ccc(C[C@@H]2c3cc(OC)c(OC)cc3CC[N@+]2(C)CCC(=O)OCCCCCOC(=O)CC[N@@+]2(C)CCc3cc(OC)c(OC)cc3[C@H]2Cc2ccc(OC)c(OC)c2)cc1OC [Cisatracurium besylate] | 99

SMILES | biofilm formation [%]
Nc1cc(-c2ccncc2)c[nH]c1=O [Amrinone] | 103
CC(N)C12CC3CC(CC(C3)C1)C2 (stereo not drawn) [Rimantadine Hydrochloride] | 62
CN(CCOc1ccc(CC2SC(=O)NC2=O)cc1)c1ccccn1 (stereo not drawn) [Rosiglitazone Hydrochloride] | 101
CCC(=O)OCC(=O)[C@@]1(OC(=O)CC)[C@H](C)C[C@H]2[C@H]3[C@H]([C@@H](O)C[C@@]21C)[C@@]1(C)C=CC(=O)C=C1C[C@H]3Cl [Alclometasone dipropionate] | 92
N=C(N)N/N=C/c1c(Cl)cccc1Cl [Guanabenz acetate] | 48
OC(CCN1CCCCC1)(c1ccccc1)C1CCCCC1 (stereo not drawn) [Trihexyphenidyl-D,L Hydrochloride] | 72
Brc1c(NC2=NCCN2)ccc2nccnc12 [Brimonidine L-Tartrate] | 102
CN(C)CCOC(=O)COc1ccc(Cl)cc1 [Meclofenoxate hydrochloride] | 66
CC(=O)Nc1ccc(O)cc1 [Acetaminophen] | 81
COc1ccc2[nH]c([S+]([O-])Cc3ncc(C)c(OC)c3C)nc2c1 (stereo not drawn) [Omeprazole] | 67
Cc1cc(-n2c(=O)[nH]c(=O)n(C)c2=O)ccc1Oc1ccc(SC(F)(F)F)cc1 [Toltrazuril] | 106
Cc1ccccc1N1C(=O)c2cc(S(N)(=O)=O)c(Cl)cc2NC1C (stereo not drawn) [Metolazone] | 11
OCCOCCN1CCN(C(c2ccccc2)c2ccc(Cl)cc2)CC1 (stereo not drawn) [Hydroxyzine dihydrochloride] | 67
C=CC1=C(C(=O)O)N2C(=O)[C@@H](NC(=O)/C(=N\OCC(=O)O)c3csc(N)n3)[C@H]2SC1 [Cefixime] | 1
C[C@]12CC[C@@H]3c4ccc(O)cc4CC[C@H]3[C@@H]1C[C@@H](O)[C@@H]2O [Estriol] | 79
CN(C)CCCO[C@@H]1[C@H]2OC(C)(C)O[C@H]2O[C@@H]1[C@H](O)CO [Amiprilose hydrochloride] | 62
Cc1noc(NS(=O)(=O)c2ccc(N)cc2)c1C [Sulfisoxazole] | 27
CCc1cccc2c3c([nH]c12)C(CC)(CC(=O)O)OCC3 (stereo not drawn) [Etodolac] | 102
CC[N+](CC)(CC)CCC(O)(c1ccccc1)C1CCCCC1 (stereo not drawn) [Tridihexethyl chloride] | 85
CC(Oc1c(Cl)cccc1Cl)C1=NCCN1 (stereo not drawn) [Lofexidine] | 92
CC1=C(CC(=O)O)c2cc(F)ccc2/C1=C\c1ccc([S+](C)[O-])cc1 (stereo not drawn) [Sulindac] | 91
CO/N=C(\C(=O)N[C@@H]1C(=O)N2C(C(=O)O)=C(C[N+]3(C)CCCC3)CS[C@H]12)c1csc(N)n1 [Cefepime hydrochloride] | 12
CCOC(=O)[C@H](CCc1ccccc1)N[C@@H](C)C(=O)N1CCC[C@H]1C(=O)O [Enalapril maleate] | 100
CC1CS(=O)(=O)CCN1/N=C/c1ccc([N+](=O)[O-])o1 (stereo not drawn) [Nifurtimox] | 71
CN1CC2c3ccccc3Oc3ccc(Cl)cc3C2C1 (stereo not drawn) [Asenapine maleate] | 72

Part of the list above, with each value named.
CC(C)(S)C(N)C(=O)O (racemic) [D,L-Penicillamine]
  biofilm formation [%]: 68
Clc1ccc(COC(Cn2ccnc2)c2ccc(Cl)cc2Cl)c(Cl)c1 (stereo not drawn) [Miconazole]
  biofilm formation [%]: 46
O=C1c2ccccc2S(=O)(=O)N1CCCCN1CCN(c2ncccn2)CC1 [Ipsapirone]
  biofilm formation [%]: 74
CN(C)CCOC(=O)COc1ccc(Cl)cc1 [Meclofenoxate hydrochloride]
  biofilm formation [%]: 66

(cont.)

SMILES | biofilm formation [%]
c1ccc2[nH]c(-c3cscn3)nc2c1 [Tiabendazole] | 66
CCCCCCCN(CC)CCCC(O)c1ccc(NS(C)(=O)=O)cc1 (stereo not drawn) [Ibutilide fumarate] | 49
COc1ccc(-c2cc(=O)c3c(O)cc(O[C@@H]4O[C@H](CO[C@@H]5O[C@@H](C)[C@H](O)[C@@H](O)[C@H]5O)[C@@H](O)[C@H](O)[C@H]4O)cc3o2)cc1O [Diosmin] | 79
CCOC(=O)C1=C[C@]2(CC)CCCN3CCc4c(n1c1ccccc41)[C@@H]32 [Vinpocetine] | 62
O=C(O)CCC(=O)Nc1ccc(S(=O)(=O)Nc2nccs2)cc1 [Succinylsulfathiazole] | 72
COc1cnc(NS(=O)(=O)c2ccc(N)cc2)nc1 [Sulfameter] | 30
Cc1cccc(CN2CCN(C(c3ccccc3)c3ccc(Cl)cc3)CC2)c1 (stereo not drawn) [Meclozine dihydrochloride] | 69
CNCCC(Oc1ccccc1OC)c1ccccc1 (stereo not drawn) [Nisoxetine hydrochloride] | 73
CCCCC(C)(O)C/C=C/[C@H]1[C@H](O)CC(=O)[C@@H]1CCCCCCC(=O)OC (mixture of isomers) [Misoprostol] | 44
COc1ccccc1O [Guaiacol] | 65
CN(C)[C@@H]1C(O)=C(C(N)=O)C(=O)[C@@]2(O)C(O)=C3C(=O)c4c(O)ccc(Cl)c4[C@@](C)(O)[C@H]3C[C@@H]12 [Chlortetracycline hydrochloride] | 20
CC(=O)N(CC(C)C(=O)O)c1c(I)cc(I)c(N)c1I (stereo not drawn) [Iocetamic acid] | 61
COc1cc(C(=O)NC2CCCNC2)cc(OC)c1OC (stereo not drawn) [Troxipide] | 77
C[C@]12CC[C@@H]3c4ccc(O)cc4CC[C@H]3[C@@H]1CCC2=O [Estrone] | 46
O=C1CCc2cc(OCCCCc3nnnn3C3CCCCC3)ccc2N1 [Cilostazol] | 59
CCS(=O)(=O)CCn1c([N+](=O)[O-])cnc1C [Tinidazole] | 63
CCCCOc1cc(C(=O)NCCN(CC)CC)c2ccccc2n1 [Dibucaine] | 77
CCC1=C(C)CN(C(=O)NCCc2ccc(S(=O)(=O)NC(=O)N[C@H]3CC[C@H](C)CC3)cc2)C1=O [Glimepiride] | 78
CC1(C)NC(=O)N(c2ccc([N+](=O)[O-])c(C(F)(F)F)c2)C1=O [Nilutamide] | 52
CCCCC(CC)CNC(=N)NC(=N)NCCCCCCNC(=N)NC(=N)NCC(CC)CCCC (stereo not drawn) [Alexidine dihydrochloride] | 9
COC(=O)[C@@H]1[C@H]2C[C@H]3c4[nH]c5ccccc5c4CCN3C[C@@H]2CC[C@@H]1O [Yohimbine hydrochloride] | 74
COc1ccc2cc([C@@H](C)C(=O)O)ccc2c1 [(R) -Naproxen sodium salt] | 83
Nc1nc(=O)c2c([nH]1)NC[C@@H](CNc1ccc(C(=O)N[C@@H](CCC(=O)O)C(=O)O)cc1)N2C=O [Folinic acid calcium salt] | 69
